Results from US9440963B2, “Compositions, formulations and methods for treating ocular diseases” (Aerpio Therapeutics Inc., priority 2013, dated 2016).
At least one read-out could not be matched to a standard name with certainty.

Test: Room temperature aqueous solubility with solubilizing agents (Example 36)
Type: physicochemical
Conditions: HPβCD, Poloxamer 407, sulfobutylether-β-cyclodextrin
Source text: The room temperature aqueous solubility (mg/mL) of the a compound (4-{(S)-2-[(S)-2-methoxycarbonylamino)-3-phenylpropanamido]-2-[2-(thiophen-2-yl)thiazol-4-yl]ethyl}phenylsulfamic acid) in water, HPβCD, Poloxamer 407, and sulfobutylether-β-cyclodextrin, is provided in TABLE XXVII. Solubility in saline for the test compound is reduced presumably due to the common ion effect.
The solubility (mg/mL) of the test compound in mixtures of HPβCD and PEG400 is illustrated in TABLE XXVIII.

Q: With `COC(=O)N[C@@H](Cc1ccccc1)C(=O)N[C@@H](Cc1ccc(NS(=O)(=O)O)cc1)c1csc(-c2cccs2)n1` as the compound, how does the “aqueous solubility with solubilizing agents” value read?
A: good improvements in aqueous solubility
